The subject of this experiment is MCF-7 cells. In words: MTT cytotoxicity assay, MCF-7. Conditions: Homo sapiens, MCF7, 72 h, read-out: IC50 MCF-7. Format: cell-based. The procedure: The anti-proliferative effects of alkaloids were assessed using the MTT assay, as previously described. In brief, 1 × 10^4 cells were seeded in 96-well-plates and incubated with serial dilutions of alkaloids for 48 h (Hela, U2OS) and 72 h (MCF-7). MTT solution was then added and incubated for 2 h. After the addition of DMSO, the plate was read at 570 nm using the Tecan infinite M200 Pro (Tecan, Crailsheim, Germany).
The IC50 was determined as the amount of the substances needed to reduce 50% cell viability/tubulin polymerization and calculated from concentration-response curves by Sigmaplot software (Systat Software Inc., San Jose, CA, USA). All experiments were performed at least three times. Data are presented as the mean ± standard deviation. Statistical comparison between controls and different treatments were performed by an unpaired Student’s t-test. Significance was considered at p < 0.05.

One compound from article PMC6273799, “The Interference of Selected Cytotoxic Alkaloids with the Cytoskeleton: An Insight into Their Modes of Action” (Molecules, 2016) can be followed below.

On to `COc1cc2c(c(OC)c1OC)-c1ccc(OC)c(=O)cc1[C@@H](NC(C)=O)CC2` [Colchicine, colchicine], for which the half-maximal inhibitory concentration (IC50) amounted to 20 ± 10 nM.
